# In all, about 220,000 compounds went through this assay and about 770 (0.35%) were called active. The inconclusive results got no clear call from the source; some entries with a clear call stand among them for comparison. Cut-off read from the data, not from the text of the source: active = binding response below about 49% or above about 150%; inconclusive = no clear call, values can overlap the other calls; inactive = in between.
# Amino acid sequences for entries named in this document (tags omitted).
# UniProt P09471, whole entry, looked up: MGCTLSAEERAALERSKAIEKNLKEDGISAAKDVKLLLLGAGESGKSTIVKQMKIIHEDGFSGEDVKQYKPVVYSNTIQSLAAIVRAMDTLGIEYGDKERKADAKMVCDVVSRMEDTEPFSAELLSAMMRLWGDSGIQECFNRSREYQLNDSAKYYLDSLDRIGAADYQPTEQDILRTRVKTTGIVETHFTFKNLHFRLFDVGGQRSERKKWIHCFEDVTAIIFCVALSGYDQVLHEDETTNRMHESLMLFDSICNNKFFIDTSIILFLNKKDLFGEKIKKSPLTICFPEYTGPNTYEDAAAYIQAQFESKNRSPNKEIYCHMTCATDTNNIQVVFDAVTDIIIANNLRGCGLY
# Biological target: Guanine nucleotide-binding protein G(o) subunit alpha (Homo sapiens) (UniProt P09471)
# Assay: RGS7-Galphao binding modulators, primary screen, biochemical, multiplexed bead flow cytometry (AID 1439);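 note: fluorescent Galphao held in activated GDP-AlF4 state binding bead-coupled RGS7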
# Conditions: at 10 µM, actives lie on both sides
row,Compound,binding response (% of control)
1,Cn1c(=O)c(Sc2ccccc2)c(O)c2ccccc21,inconclusive: 98.7%
2,COc1ccc(N2CCN(C(=O)c3ccccc3Br)CC2)c([N+](=O)[O-])c1,inconclusive: 90.1%
3,CC(C)C[C@@H](CSc1ccc(Br)cc1)N1CCN(C)CCC1=O,inconclusive: 110%
4,O=C(Nc1ccc(F)cc1)OCCOc1ccc([N+](=O)[O-])cc1,inconclusive: 99%
5,Cc1ccc(N2C(=O)N(CC(=O)Nc3ccc(C)c(C)c3[N+](=O)[O-])C(=O)C2C)cc1 (configuration not stated),inconclusive: 113%
6,COc1ccc(NC2=NC(C)(CO)CS2)cc1 (configuration not stated),inconclusive: 125%
7,O=[N+]([O-])c1ccc(N2CCOCC2)cc1O,inconclusive: 87%
8,OC1=C(O)c2nc3cc(F)ccc3nc21,inconclusive: 93.6%
9,CCOC(=O)C1=C(C)NC(C)=C(C(=O)OCC)C1c1ccc(C)o1,inconclusive: 309%
10,CC(=O)Nc1cccc(-n2nnc(SCC(=O)Nc3ccccc3)n2)c1,inconclusive: 173%
11,O=C(NC1CCCCNC1=O)c1ccccc1 (configuration not stated),inconclusive: 96.2%
12,Cc1ccc(/C=C/C(=O)N2CCN(S(=O)(=O)/C=C/c3ccccc3)CC2)o1,inconclusive: 121%
13,Cc1nccn1CC(=O)N/N=C/c1cccs1,inconclusive: 71.4%
14,CC(=O)c1cccc(NC(=O)C(C)N2CCc3ccccc3C2)c1 (configuration not stated),inconclusive: 114%
15,O=C(C=C=Nc1ccccc1)C(=O)N=C=Cc1ccccc1,inconclusive: 87.1%
16,CCOC(=O)c1ccc(NC(=O)Cn2cnc3cc(C)c(C)cc32)cc1,inconclusive: 78.4%
17,CC(C)NC(=O)N(Cc1ccccc1)Cc1cccs1,inconclusive: 24.6%
18,O=C(NC(=S)Nc1ccc(S(=O)(=O)Nc2nccs2)cc1)C1CC1,inconclusive: 103%
19,CCOC(=O)c1cc(CC)sc1N1C(=O)CC(Sc2ccccc2C(=O)O)C1=O (configuration not stated),inconclusive: 114%
20,Cc1ccc(S(=O)(=O)N(C)C)cc1NC(=O)Cn1c(CN2CCOCC2)nc2ccccc2c1=O,inconclusive: 101%
21,COc1ccc(C(CC(=O)N2CCN(c3ccccc3)CC2)c2c(OC)cc(OC)c3c(-c4ccccc4)cc(=O)oc23)cc1 (configuration not stated),inconclusive: 85.5%
22,CCOc1ccc(S(=O)(=O)Nc2nccs2)cc1,inactive: 101%
23,CC1(C)CC(=O)C/C(=N/NC(=O)COc2ccc(Cl)cc2Cl)C1,inconclusive: 113%

row,Compound,binding response (% of control)
1,O=C1CN(c2ccccc2)C(=O)N1,inconclusive: 110%
2,Cc1ccc(C)c(-n2c(-c3ccc(Br)cc3)csc2=NC(=O)c2ccccc2F)c1,inconclusive: 121%
3,CCOC(=O)c1cnc2c(C(=O)OC)cccc2c1NCc1cccnc1,inactive: 100%
4,COc1ccc(NS(=O)(=O)c2ccc3oc(=S)[nH]c3c2)cc1,inconclusive: 208%
5,Cn1c(=O)cc(SCC(=O)N2CCCC2)c2ccccc21,inactive: 101%
6,CC(C)c1ccc(C(N)=S)cc1,inactive: 97.5%
7,O=C(NCc1cc(C(F)(F)F)cc(C(F)(F)F)c1)C1CC(c2cccc(F)c2)=NO1 (configuration not stated),inconclusive: 115%
8,COC(=O)CC1C(=O)NCCN1C(=O)CSc1nc2ccccc2o1 (configuration not stated),inconclusive: 89.7%
9,O=C(COC(=O)c1ccc(F)cc1)Nc1cc(S(=O)(=O)N2CCOCC2)ccc1N1CCCC1,inconclusive: 112%
10,O=C1CCCC2=C1C(c1cccs1)n1nc(SCc3ccc(C(=O)O)cc3)nc1N2 (configuration not stated),inconclusive: 102%
11,Clc1ccc(-c2nnc(N3CCOCC3)o2)cc1,inconclusive: 125%
12,Cc1cc(C(=O)COc2cccnc2[N+](=O)[O-])c(C)n1-c1ccccc1F,inconclusive: 59.8%
13,O=C(CCC(=O)N1CCN(c2ccc(F)cc2)CC1)c1ccc(F)cc1,inconclusive: 107%
14,O=C(OCc1nnc(-c2ccccc2)o1)c1ccccc1,inconclusive: 110%
15,O=C(c1[nH]ncc1-c1ccccc1)C1CO1 (configuration not stated),inconclusive: 115%
16,O=C(C[n+]1ccc(-c2cc(C(=O)Nc3cccc(C(F)(F)F)c3)c3ccccc3n2)cc1)c1cccc([N+](=O)[O-])c1,inconclusive: 84.5%
17,Cc1ccc2nc(-c3ccncc3)c(NC3CCCCC3)n2c1,inconclusive: 121%
18,O=c1cc(-c2ccccc2Cl)oc2c(NS(=O)(=O)c3cccc4nsnc34)ccc(O)c12,inconclusive: 103%
19,CC(C)c1nc(SCC(=O)Nc2c[nH]c(=O)[nH]c2=O)c2cnn(-c3ccccc3)c2n1,inconclusive: 80.7%
20,NC(=O)c1cnn(-c2cccc(Cl)c2)c1N,inconclusive: 105%
21,O=C(Nc1ccccc1)Nc1nnc(-c2ccccc2)s1,inconclusive: 531%
22,COc1cc(OC)cc(-c2n[nH]c(=S)n2-c2ccc3c(c2)OCO3)c1,inactive: 104%
23,N#CCCN1CCN(C(=O)c2c(N)no[n+]2[O-])CC1,inactive: 103%

row,Compound,binding response (% of control)
1,Cc1ccc(OCCCC(=O)NC(C)c2ccccc2)cc1 (configuration not stated),inactive: 99.9%
2,CCNC(=O)COC(=O)CCC(=O)c1ccc(F)cc1,inconclusive: 128%
3,Cc1cc(C)n2c(SCc3ccc(Br)cc3)nnc2n1,inconclusive: 145%
4,COc1ccc(-c2cc(C(F)(F)F)c(C#N)c(SCC(=O)O)n2)cc1OC,inconclusive: 144%
5,COc1c(Cl)cccc1-c1cn2ccc(C)cc2n1,inconclusive: 104%
6,CC(NC(=S)Nc1ccccc1C(F)(F)F)C1CC2CCC1C2 (configuration not stated),inactive: 80.3%
7,CC1(C)C2C(Cl)(Cl)C2(C)c2ccccc2N1C=O (configuration not stated),inconclusive: 112%
8,O=C(Nc1ccn(Cc2ccc(Cl)cc2)n1)c1ccccc1,inconclusive: 90.1%
9,COc1ccccc1NC(=S)N1CCn2cccc2C1c1cccnc1 (configuration not stated),inactive: 102%
10,Oc1nc(Nc2ccc(F)cc2)sc1/C=C1\C=Nc2ccccc21,inconclusive: 78.5%
11,COc1ccc(N2C3=C(C(=O)CC(C)(C)C3)C(c3cnn(C)c3)C3=C2CC(C)(C)CC3=O)cc1,inconclusive: 81.3%
12,N=c1sccn1CC(=O)Nc1ccc([N+](=O)[O-])cc1Cl,inconclusive: 149%
13,CCOc1cc(Br)ccc1S(=O)(=O)NCc1ccccc1,inactive: 96.2%
14,NC(=O)CCC(C(=O)O)N1C(=O)c2ccc(O)cc2C1=O (configuration not stated),inconclusive: 97.3%
15,O=C(CCn1cnc2ccccc21)N=Nc1c(O)[nH]c2ccccc12,inconclusive: 99.3%
16,CC(=O)c1cn(N(C)c2ncc(C(F)(F)F)cc2Cl)c(=O)[nH]c1=O,inconclusive: 96.6%
17,COc1ccccc1N1CCN(C(=O)CN2C(=O)c3ccccc3S2(=O)=O)CC1,inconclusive: 82.3%
18,O=C(N/N=C/c1cccc(NC(=O)c2ccc(Cl)cc2)c1)c1ccc(O)cc1,inconclusive: 95.5%
19,Cc1ccc(NC(=O)CS(=O)(=O)c2cn(C)c3ccccc23)c(C)c1,inconclusive: 87.9%
20,C=CCn1c(SCc2n[nH]c(=S)n2-c2ccccc2)nnc1-c1ccccc1,inconclusive: 104%
21,Cc1cc(NC(=O)Nc2ccccc2F)ccc1Br,inactive: 99.2%
22,COCCN1C(=O)N(C)[C@@H](c2ccccc2)C(C(C)=O)=C1C,inconclusive: 97.9%
23,Cc1ccc(C)c(-c2cc(C(=O)NN3CCOCC3)c3ccccc3n2)c1,inconclusive: 84.5%

row,Compound,binding response (% of control)
1,COc1cc([N+](=O)[O-])cc(/C=N/NC(=O)Cn2nccc2C)c1O,inconclusive: 91.7%
2,Cc1nn2c(-c3ccncc3)ccnc2c1Br,inconclusive: 102%
3,CC(=O)N1CCC(=O)Nc2ccc([N+](=O)[O-])cc21,inactive: 103%
4,O=c1c2c3c(sc2[nH]c(=S)n1Cc1ccco1)CCC3,inconclusive: 93.8%
5,O=C(OCc1ccc([N+](=O)[O-])cc1)c1ccc2ccccc2n1,inconclusive: 129%
6,CCN(CC)CCCN1C=C2C(=O)C(C)(OC(=O)C3CCCC3)C(=O)C(c3ccccc3)=C2C=C1CCCC(=O)OC (configuration not stated),inconclusive: 102%
7,CCCC[N+](CC#CCO)(CC#Cc1ccccc1)CCCC,inconclusive: 97.2%
8,O=C(CCC(=O)N1CCN(c2ccccn2)CC1)Nc1nnc(C(F)(F)F)s1,inconclusive: 81.4%
9,CC1=NOC(=O)/C1=C\c1ccc2c(c1)OCO2,inconclusive: 74.5%
10,O=C(/C=C\c1ccc2c(c1)OCO2)CC1(O)C(=O)Nc2ccccc21 (configuration not stated),inconclusive: 88.7%
11,CC(C)CN1CCN(Cc2ccc(Oc3ncccn3)cc2)CC1CCO (configuration not stated),inconclusive: 119%
12,COc1cc(NS(=O)(=O)c2ccc(NC(=S)NC(=O)/C=C/c3ccco3)cc2)ncn1,inactive: 97.5%
13,Cn1cccc1/C=N/NC(=O)c1ccccn1,inconclusive: 95.4%
14,COc1cc(-c2[nH]ncc2CN(C)Cc2cc(C)[nH]n2)cc(OC)c1OC,inactive: 104%
15,O=C1CCCCC1C(O)c1ccc(Cl)cc1 (configuration not stated),inconclusive: 65.4%
16,Cc1ccc(CNC(=O)CCC2CCCN(Cc3cc4ccccc4o3)C2)o1 (configuration not stated),inconclusive: 76.9%
17,Cc1ccc(C(=O)NC(C#N)=C(Cl)Cl)cc1,inactive: 106%
18,O=C(Nc1ccc(Cl)cc1)Nc1cc([N+](=O)[O-])ccc1F,inactive: 98.2%
19,O=C(NCCC(=O)N1CCOCCOCCOCCOCC1)OCc1ccccc1,inconclusive: 147%
20,Cc1ccnc(NC(=O)COC(=O)c2ccc(F)cc2F)n1,inconclusive: 129%
21,N#Cc1ccc(/C=N/N=C(N)N)cc1,active: 179% [activator]
22,Cc1cc(=O)[nH]c2c1c(-c1ccccc1)nn2C,inconclusive: 84%
23,Cc1ccc(NC(=O)CSc2nnnn2-c2ccc3c(c2)OCO3)cc1C,inactive: 102%

# In the list so far, four contain a COOH group.
row,Compound,binding response (% of control)
19,CCOC(=O)c1cc(CC)sc1N1C(=O)CC(Sc2ccccc2C(=O)O)C1=O (configuration not stated),inconclusive: 114%
10,O=C1CCCC2=C1C(c1cccs1)n1nc(SCc3ccc(C(=O)O)cc3)nc1N2 (configuration not stated),inconclusive: 102%
4,COc1ccc(-c2cc(C(F)(F)F)c(C#N)c(SCC(=O)O)n2)cc1OC,inconclusive: 144%
14,NC(=O)CCC(C(=O)O)N1C(=O)c2ccc(O)cc2C1=O (configuration not stated),inconclusive: 97.3%

# From PubChem BioAssay AID1439 (NMMLSC, 2008)
